Changes are numbered by the printed parent chain. No constants are given. Whether binding was seen depends on the method and setting. In cells and extracts the contact can be indirect. Some binding calls cover weakened binding; strength is not graded here. Tags and fused reporters may be left off the sequences shown.
Columns and labels:
[1] = biological target: T1, Flag-JMJD2A R505/506/507/563/564/594 hexa-mutant (human) (UniProt O75164); assay: co-IP; Flag-JMJD2A (WT or 6xR) with ectopically expressed androgen receptor, in the presence of 50 nM dihydrotestosterone; anti-Flag IP
T1 sequence: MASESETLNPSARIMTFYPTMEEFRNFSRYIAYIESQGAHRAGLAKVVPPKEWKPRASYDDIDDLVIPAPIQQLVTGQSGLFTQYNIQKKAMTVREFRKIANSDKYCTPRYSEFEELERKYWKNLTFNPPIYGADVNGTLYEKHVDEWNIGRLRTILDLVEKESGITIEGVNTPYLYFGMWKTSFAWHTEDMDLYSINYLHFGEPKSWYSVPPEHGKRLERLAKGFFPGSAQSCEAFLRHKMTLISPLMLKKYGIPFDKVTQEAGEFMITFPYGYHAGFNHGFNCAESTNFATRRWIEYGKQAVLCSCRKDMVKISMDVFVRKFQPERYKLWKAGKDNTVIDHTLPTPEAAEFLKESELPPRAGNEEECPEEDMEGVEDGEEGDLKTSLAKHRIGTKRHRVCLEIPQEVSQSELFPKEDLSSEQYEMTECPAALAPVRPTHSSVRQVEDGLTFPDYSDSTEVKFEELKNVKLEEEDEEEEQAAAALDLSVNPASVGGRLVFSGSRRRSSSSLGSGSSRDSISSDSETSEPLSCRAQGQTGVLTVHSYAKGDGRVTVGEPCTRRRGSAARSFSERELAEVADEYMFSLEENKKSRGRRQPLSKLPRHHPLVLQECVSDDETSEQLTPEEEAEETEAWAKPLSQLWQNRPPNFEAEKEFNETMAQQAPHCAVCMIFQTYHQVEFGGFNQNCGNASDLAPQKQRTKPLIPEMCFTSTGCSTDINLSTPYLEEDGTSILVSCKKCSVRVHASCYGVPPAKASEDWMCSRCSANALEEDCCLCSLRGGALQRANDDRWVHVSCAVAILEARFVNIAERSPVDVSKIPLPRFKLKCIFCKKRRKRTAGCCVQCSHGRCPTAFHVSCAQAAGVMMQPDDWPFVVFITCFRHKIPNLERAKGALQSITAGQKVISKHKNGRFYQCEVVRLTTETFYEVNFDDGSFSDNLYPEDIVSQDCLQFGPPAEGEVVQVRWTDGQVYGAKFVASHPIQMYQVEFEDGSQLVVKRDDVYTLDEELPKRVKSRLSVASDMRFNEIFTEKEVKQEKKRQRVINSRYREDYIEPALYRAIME

By UniProt entry, the sequences of proteins in these tests, tags left out.
UniProt P10275: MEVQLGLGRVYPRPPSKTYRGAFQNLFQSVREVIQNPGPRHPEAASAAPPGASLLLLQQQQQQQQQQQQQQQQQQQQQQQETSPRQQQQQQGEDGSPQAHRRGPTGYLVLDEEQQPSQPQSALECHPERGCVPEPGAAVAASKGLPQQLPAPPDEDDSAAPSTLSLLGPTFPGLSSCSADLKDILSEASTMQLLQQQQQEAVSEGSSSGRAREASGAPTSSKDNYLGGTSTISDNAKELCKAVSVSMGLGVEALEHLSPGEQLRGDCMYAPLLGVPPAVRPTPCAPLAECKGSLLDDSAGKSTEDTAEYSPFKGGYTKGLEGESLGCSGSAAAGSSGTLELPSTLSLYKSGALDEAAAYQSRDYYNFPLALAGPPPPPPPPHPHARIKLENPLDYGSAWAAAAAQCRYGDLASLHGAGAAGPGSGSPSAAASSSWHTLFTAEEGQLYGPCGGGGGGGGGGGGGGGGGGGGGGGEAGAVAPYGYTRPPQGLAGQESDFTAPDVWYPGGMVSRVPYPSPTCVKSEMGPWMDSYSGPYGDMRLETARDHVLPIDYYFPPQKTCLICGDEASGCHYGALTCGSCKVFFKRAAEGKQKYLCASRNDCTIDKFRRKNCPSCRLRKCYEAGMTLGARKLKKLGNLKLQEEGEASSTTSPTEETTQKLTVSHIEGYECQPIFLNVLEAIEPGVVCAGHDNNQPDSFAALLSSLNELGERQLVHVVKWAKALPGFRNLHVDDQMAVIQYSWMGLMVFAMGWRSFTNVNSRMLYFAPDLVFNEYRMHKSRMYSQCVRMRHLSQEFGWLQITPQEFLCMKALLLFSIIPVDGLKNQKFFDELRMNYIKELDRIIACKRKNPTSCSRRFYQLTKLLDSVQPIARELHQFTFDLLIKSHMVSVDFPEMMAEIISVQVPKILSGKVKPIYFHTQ
UniProt P50549: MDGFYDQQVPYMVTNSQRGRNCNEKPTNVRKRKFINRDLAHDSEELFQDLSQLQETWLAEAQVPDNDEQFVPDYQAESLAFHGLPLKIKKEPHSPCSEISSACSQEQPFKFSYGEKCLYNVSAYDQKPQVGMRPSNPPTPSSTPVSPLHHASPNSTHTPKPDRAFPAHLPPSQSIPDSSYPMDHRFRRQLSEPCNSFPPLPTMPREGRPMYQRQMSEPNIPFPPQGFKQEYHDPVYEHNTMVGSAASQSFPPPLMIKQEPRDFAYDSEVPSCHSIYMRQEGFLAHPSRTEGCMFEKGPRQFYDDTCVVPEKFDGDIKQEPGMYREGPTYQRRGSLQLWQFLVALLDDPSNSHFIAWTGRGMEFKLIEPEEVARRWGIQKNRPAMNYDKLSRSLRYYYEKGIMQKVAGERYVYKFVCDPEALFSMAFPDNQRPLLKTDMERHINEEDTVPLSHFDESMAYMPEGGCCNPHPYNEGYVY

[2] = biological target: T2, Flag-tagged JMJD2A (WT) (human) (UniProt O75164); assay: as above
T2 sequence: T1 sequence with R505K, R506K, R507K, R563K, R564K, R594K

[3] = biological target: T3, Flag-JMJD2A R594 mutant (human) (UniProt O75164); assay: co-IP; 293T cells co-transfected with Flag-JMJD2A (WT or K-to-R mutants) and 6Myc-ETV1; anti-Flag IP, anti-Myc Western blot; also with doxycycline (0.3 μg/mL) to overexpress SET7/9
T3 sequence: T1 sequence with R505K, R506K, R507K, R563K, R564K

[4] = biological target: T4, Flag-JMJD2A R505/506/507 triple mutant (human) (UniProt O75164); assay: as above
T4 sequence: T1 sequence with R563K, R564K, R594K

[5] = biological target: T1, Flag-JMJD2A R505/506/507/563/564/594 hexa-mutant (human); assay: as above
[6] = biological target: T5, Flag-JMJD2A R563/564 mutant (human) (UniProt O75164); assay: as above
T5 sequence: T1 sequence with R505K, R506K, R507K, R594K

[7] = biological target: T2, Flag-tagged JMJD2A (WT) (human); assay: as above

Measured: binding

androgen receptor (AR), ectopically expressed (from UniProt P10275 1-920)
binds: [1] | [2]

6Myc-tagged ETV1 (from UniProt P50549 1-477)
not listed: [1] | [2]
binds: all other assays above

From paper PMC10619491, “SET7/9-mediated methylation affects oncogenic functions of histone demethylase JMJD2A” (JCI Insight, 2023)
